Laboratory results: PubChem BioAssay AID1259273 (Sanger Institute, 2017)
Assay: 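Confirm kinome hits that work in synergy with targeted cancer drugs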 (follow-up of hits). Cell system: human NCI-H630 colorectal cancer cells. Reagent: single siRNA against human genes. Conditions: anchor drugs BYL719 at 1 µM, cetuximab at 5 µg/ml or trametinib at 10 nM, or DMSO vehicle alone. Measured: 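Viability relative to wells given a non-targeting control pool; synergy score for each anchor drug, weighing combined effect against siRNA only and drug only; replicate means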. Reading the numbers: synergy score with trametinib and synergy score with BYL719 and synergy score with cetuximab: higher = stronger synergy, more synthetic lethal; viability with trametinib: higher = more viable cells with knock-down plus drug; viability, vehicle only: higher = more viable cells after knock-down. Call rule: 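Called synergistic (synthetic lethal) when the mean synergy score is above 0.10 for one or more of the three anchor drugs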.
In all, the deposit lists 160 reagents; this is a random part of them. Of all reagents, 36 (22%) were called active. 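Four distinct siRNA duplexes per gene; each call applies to one duplex and is not gene-level validation across cell lines.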 A number with no mark means an inactive call. Reagents against one gene are numbered here. No viability above 1 is reported: the scale is capped. The record does not give: the amount of reagent, the time to read-out.

gene,reagent no.,synergy score with trametinib,synergy score with BYL719,synergy score with cetuximab,viability with trametinib (fraction of control),"viability, vehicle only (fraction of control)"
HSPB8,1,0.206 (active),0.0229,0.0732,0.575,0.871
HSPB8,2,-0.088,-0.133,-0.144,0.985,1
HSPB8,3,0.0514,-0.146,-0.0518,0.845,1
HSPB8,4,0.132 (active),-0.0888,-0.0842,0.764,1
AK2,1,-0.103,-0.146,-0.206,1,1
AK2,2,-0.000826,-0.144,-0.182,0.897,1
AK2,3,-0.103,-0.146,-0.23,1,1
AK2,4,0.0795,-0.146,0.0329,0.817,1
MAPKAPK2,1,-0.000962,-0.0426,0.0186,0.898,1
MAPKAPK2,2,-0.103,-0.146,-0.147,1,1
MAPKAPK2,3,-0.103,-0.146,-0.0586,1,1
MAPKAPK2,4,-0.103,-0.146,-0.0552,1,1
EPHA6,1,0.102 (active),-0.0106,-0.053,0.634,0.821
EPHA6,2,0.0995,0.0289,-0.0649,0.797,1
EPHA6,3,0.132 (active),-0.173,0.038,0.701,0.929
EPHA6,4,-0.0324,-0.146,-0.172,0.929,1
RPS6KA4,1,0.0452,-0.146,-0.0809,0.851,1
RPS6KA4,2,0.0192,-0.0665,-0.0336,0.877,1
RPS6KA4,3,-0.0532,-0.0638,-0.149,0.95,1
RPS6KA4,4,0.0362,-0.0763,-0.0954,0.86,1
IRAK1,1,0.135 (active),-0.124,-0.129,0.762,1
IRAK1,2,-0.103,-0.0405,-0.0538,1,1
IRAK1,3,-0.0244,0.0506,0.0433,0.812,0.878
IRAK1,4,-0.0862,-0.145,-0.0903,0.968,0.983
GRK5,1,-0.103,-0.146,-0.179,1,1
GRK5,2,-0.103,-0.146,-0.23,1,1
GRK5,3,0.145 (active),-0.101,-0.065,0.752,1
GRK5,4,0.0871,-0.136,0.0819,0.807,0.998
PFKFB3,1,0.00487,-0.118,0.0842,0.892,1
PFKFB3,2,0.0659,-0.137,-0.00975,0.757,0.918
PFKFB3,3,-0.103,-0.146,-0.176,1,1
PFKFB3,4,-0.0524,-0.125,-0.067,0.949,1

Only “synergy score with cetuximab” (6 entries from above):
GRK5 #2 = -0.23
GRK5 #3 = -0.065 (active)
GRK5 #4 = 0.0819
PFKFB3 #1 = 0.0842
PFKFB3 #2 = -0.00975
PFKFB3 #3 = -0.176

Continued.
gene,reagent no.,synergy score with trametinib,synergy score with BYL719,synergy score with cetuximab,viability with trametinib (fraction of control),"viability, vehicle only (fraction of control)"
MPP3,1,-0.0313,-0.11,-0.129,0.891,0.959
MPP3,2,0.0976,-0.17,-0.0884,0.73,0.923
MPP3,3,-0.0211,-0.0463,-0.0532,0.918,1
MPP3,4,0.1 (active),-0.0775,-0.154,0.796,1
SYNCRIP,1,0.0538,-0.265,-0.0464,0.7,0.841
SYNCRIP,2,-0.0481,-0.146,-0.178,0.945,1
SYNCRIP,3,0.0104,-0.0912,-0.083,0.565,0.642
SYNCRIP,4,0.0325,-0.0285,-0.128,0.777,0.903
SF3B1,1,-0.0803,-0.0089,-0.117,0.751,0.748
SF3B1,2,0.0506,0.019,-0.00155,0.585,0.709
SF3B1,3,-0.0037,0.051,-0.0696,0.869,0.965
SF3B1,4,-0.14,-0.0466,-0.0745,0.644,0.562
CAMK2N1,1,-0.103,-0.146,0.0177,1,1
CAMK2N1,2,-0.0737,-0.0996,-0.133,0.893,0.914
CAMK2N1,3,-0.163,0.0119,0.0694,1,0.933
CAMK2N1,4,-0.214,-0.16,-0.114,0.983,0.857
PRAG1,1,0.0563 (active),0.187,0.0399,0.84,1
PRAG1,2,-0.103 (active),0.205,-0.23,1,1
PRAG1,3,-0.103,-0.104,0.00298,1,1
PRAG1,4,0.0288,-0.00251,0.0963,0.868,1
